This test has as its target IGF2BP3 (human (endogenous in breast cancer cells)) (UniProt O00425). In words: affinity purification with mass spectrometry; co-IP of IGF2BP3 from breast cancer cells followed by mass spectrometry; hits intersected with the RNA pull-down using circSIPA1L3 probes.

Amino acid sequences for entries named in this document (tags omitted).
UniProt O00425: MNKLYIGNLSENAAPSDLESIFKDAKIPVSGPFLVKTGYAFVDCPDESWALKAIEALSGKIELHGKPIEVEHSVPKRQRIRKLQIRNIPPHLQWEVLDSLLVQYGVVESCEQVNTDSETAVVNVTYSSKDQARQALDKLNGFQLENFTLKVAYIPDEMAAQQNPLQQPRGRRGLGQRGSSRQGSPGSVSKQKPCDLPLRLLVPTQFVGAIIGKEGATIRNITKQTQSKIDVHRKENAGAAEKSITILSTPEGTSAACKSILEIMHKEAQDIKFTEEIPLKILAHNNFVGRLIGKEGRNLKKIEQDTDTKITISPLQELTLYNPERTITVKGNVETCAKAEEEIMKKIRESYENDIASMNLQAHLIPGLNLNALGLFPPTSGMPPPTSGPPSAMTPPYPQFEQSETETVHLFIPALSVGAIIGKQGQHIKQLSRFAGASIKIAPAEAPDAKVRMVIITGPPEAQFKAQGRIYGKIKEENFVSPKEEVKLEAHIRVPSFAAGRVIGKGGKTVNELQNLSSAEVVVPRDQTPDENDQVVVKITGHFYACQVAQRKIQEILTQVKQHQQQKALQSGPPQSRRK
UniProt Q93009: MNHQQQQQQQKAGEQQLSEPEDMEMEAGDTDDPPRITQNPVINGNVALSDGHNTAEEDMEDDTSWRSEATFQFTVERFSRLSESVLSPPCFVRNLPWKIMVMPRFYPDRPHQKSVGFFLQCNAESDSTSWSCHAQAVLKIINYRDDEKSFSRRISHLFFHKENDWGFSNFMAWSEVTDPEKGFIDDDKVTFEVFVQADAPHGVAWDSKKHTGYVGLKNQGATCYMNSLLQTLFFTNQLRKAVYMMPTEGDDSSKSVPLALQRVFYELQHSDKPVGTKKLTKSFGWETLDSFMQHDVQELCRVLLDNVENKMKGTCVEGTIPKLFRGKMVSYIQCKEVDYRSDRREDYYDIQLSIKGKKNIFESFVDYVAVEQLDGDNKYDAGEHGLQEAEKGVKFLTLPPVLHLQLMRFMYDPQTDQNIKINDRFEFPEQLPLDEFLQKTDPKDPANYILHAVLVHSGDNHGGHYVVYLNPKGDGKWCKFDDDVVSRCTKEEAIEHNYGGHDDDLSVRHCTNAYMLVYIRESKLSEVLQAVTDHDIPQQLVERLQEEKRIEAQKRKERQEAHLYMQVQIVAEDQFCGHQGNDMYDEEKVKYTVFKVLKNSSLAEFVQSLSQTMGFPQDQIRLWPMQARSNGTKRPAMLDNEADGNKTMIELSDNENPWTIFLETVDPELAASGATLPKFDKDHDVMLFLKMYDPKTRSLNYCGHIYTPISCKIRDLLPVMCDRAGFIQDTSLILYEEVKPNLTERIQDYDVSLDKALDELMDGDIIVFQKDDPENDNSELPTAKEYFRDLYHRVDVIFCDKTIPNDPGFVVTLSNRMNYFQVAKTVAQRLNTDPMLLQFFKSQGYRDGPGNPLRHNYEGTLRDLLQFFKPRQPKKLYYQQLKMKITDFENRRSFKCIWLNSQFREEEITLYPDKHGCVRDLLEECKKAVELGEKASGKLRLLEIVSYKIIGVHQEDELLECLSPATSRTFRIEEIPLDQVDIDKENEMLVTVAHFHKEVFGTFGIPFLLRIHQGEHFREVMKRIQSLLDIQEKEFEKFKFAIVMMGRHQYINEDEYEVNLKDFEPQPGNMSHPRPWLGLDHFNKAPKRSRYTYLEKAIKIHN

These are yes or no findings as the source states them, for the method shown. In cells and extracts the contact can be indirect. A yes stands for co-enrichment or nearness to the bait. Other partners may have been found.

Consider “ubiquitin specific peptidase 7 (USP7) (from UniProt Q93009 1-1102) (enzyme)”, for which the binding entry is given as “binds”.

The record behind these values is publication PMC11161950.
